The values are deposited in ChEMBL (CHEMBL3988442, “University of Dundee, Small-Polar-MMV Screening Library” (2021)).

Protein sequences, listed by entry. Tags and fused reporters are not part of them.
UniProt E9BF75, entry or part of it: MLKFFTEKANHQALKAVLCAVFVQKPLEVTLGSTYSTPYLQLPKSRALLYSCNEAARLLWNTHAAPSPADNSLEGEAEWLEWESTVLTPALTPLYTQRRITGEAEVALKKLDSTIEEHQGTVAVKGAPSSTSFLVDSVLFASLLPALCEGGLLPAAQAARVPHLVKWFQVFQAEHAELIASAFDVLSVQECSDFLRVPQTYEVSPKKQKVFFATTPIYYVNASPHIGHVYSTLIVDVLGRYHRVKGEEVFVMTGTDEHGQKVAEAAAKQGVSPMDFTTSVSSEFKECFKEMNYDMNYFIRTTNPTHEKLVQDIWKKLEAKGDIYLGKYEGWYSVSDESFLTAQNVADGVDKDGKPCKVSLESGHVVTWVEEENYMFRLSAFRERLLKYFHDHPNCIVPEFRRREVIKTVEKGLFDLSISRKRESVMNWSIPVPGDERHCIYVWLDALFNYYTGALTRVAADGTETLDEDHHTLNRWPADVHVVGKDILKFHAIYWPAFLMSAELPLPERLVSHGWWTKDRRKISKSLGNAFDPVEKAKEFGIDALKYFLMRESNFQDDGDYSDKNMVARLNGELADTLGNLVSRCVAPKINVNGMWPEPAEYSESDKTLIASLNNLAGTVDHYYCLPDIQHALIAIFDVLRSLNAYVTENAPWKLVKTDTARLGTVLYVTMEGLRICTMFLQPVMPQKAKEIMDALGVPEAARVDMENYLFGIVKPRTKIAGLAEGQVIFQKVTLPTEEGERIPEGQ

All values are in %.
How 0% and 100% were set is not recorded. Most values in the screen are low, and negative values occur.
The compounds are a random part of those screened.

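Primary screen of methionyl-tRNA synthetase; the read-out is not stated. Target: Methionyl-tRNA synthetase (putative), Leishmania donovani (UniProt E9BF75). The test concentration is not given. Values are per cent inhibition. Size under these conditions: about 68,000 compounds, about 24 of them at 50% or above in at least one test.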

Result for CN(C)CCOC[C@H]1CC[C@H]2[C@H](CCN2C(=O)c2ccoc2)O1 was 11.33%. c1cncc(CN2CCn3cc(Cn4cccn4)nc3C2)c1 gave 7.205%. Cc1cnn(CC(C)NCc2ccc(S(C)(=O)=O)cc2)c1 (centres unmarked) read 12.5%. Result for Cc1nn(C)c(C)c1CN(Cc1cccn1-c1ccccn1)C(C)C was 11.56%. With Cc1cc(NC(=O)NCc2cccnc2OC(C)C)n(C)n1 the screen gave 9.722%.

OC(CNc1ccncn1)CN1CCCCCC1 (centres unmarked) gave 15.46%. Result for CN1CCN(c2ccc(NCc3ccsc3)cn2)CC1 was 5.59%. COc1cc(NC(=O)c2ccc(CN3CC[C@H](O)C3)cc2)cc(OC)c1 read 12.69%. With CCc1nnc2n1CCN(Cc1csc(-c3ccccc3)n1)C2 the screen gave 13.86%. With COCCCSc1ccc(NCc2cscn2)cc1 the screen gave 6.25%.

Result for Cc1cccc(-c2noc([C@@H]3C[C@@H](O)CN3C3CCOCC3)n2)c1 was 3.729%. CN1CCN(C(=O)CCn2c(C(F)(F)F)cc3cccnc32)CC1 read 5.788%. For CC(=O)N1CC2(CCN(c3ccc4ccccc4n3)CC2)CC1C(=O)O (centres unmarked) the result was 2.558%. Result for CC1CN(C)CCN1C(=O)Nc1nc(-c2ccco2)cs1 (centres unmarked) was 12.69%. CC(Nc1nc2c(cnn2C)c(=O)[nH]1)c1ccc(F)cc1 (centres unmarked) read 11.69%.

For Cc1cnn(CC2CCCN2Cc2noc(C(C)(C)C)n2)c1 (centres unmarked) the result was 18.62%. Cc1nccn1C1CCCN(C(=O)COC2CCCC2)C1 (centres unmarked) read 16.32%. For COc1ccccc1-n1nc(-c2ccco2)n(CC(=O)NC(C)C)c1=O the result was 9.207%. Result for Cc1cc(C)n(CC2CCCN2Cc2c(C)noc2C)n1 (centres unmarked) was 8.497%. COc1ccc(CN(Cc2cnn(C)c2)CC(C)C)cn1 gave 8.04%.

For Cc1csc(N2CCN(C(=O)c3cc(Cl)c[nH]3)CC2)n1 the result was 14.18%. COc1nn(C)c2c1CCCN(C(=O)c1cccs1)C2 read 10.78%. CCOC(=O)c1sc(NC(=O)CCCC(=O)O)c(C#N)c1C gave -1.737%. For CCOc1ccc(-c2nc(CN(C)Cc3c(C)noc3C)cs2)cc1 the result was 12.77%. With Cc1cccc(C(=O)Nc2cccc3c2C(=O)NC3)n1 the screen gave 8.871%.

For Cc1ccc(CC(=O)N2CCCC(c3nccs3)C2)cn1 (centres unmarked) the result was 13.65%. O=C1C[C@@H]2CCN(Cc3ccccc3)C[C@@H]2CCN1C1CCCCC1 gave 7.692%. With CCc1nc(C(=O)N2CCN(C)CC2C)nn1-c1ccccc1Cl (centres unmarked) the screen gave 7.874%. Cn1c(CN2CCCC2)nnc1C1CCCN(C(=O)CN2CCCC2)C1 (centres unmarked) read 14.84%. For Cc1n[nH]c(=O)c2c(NC(=O)CN3CCCC(C(F)(F)F)C3)oc(C)c12 (centres unmarked) the result was 9.202%.

Cc1cc(C)n(CC2CCCN2C(=O)c2cc[nH]n2)n1 (centres unmarked) gave 15.97%. O=C(C1CC1)N1CCN(Cc2ccncc2)c2ncccc2C1 read 6.849%. For NCC1Cc2cccc(-c3nccc(N4CCC(O)CC4)n3)c2O1 (centres unmarked) the result was 3.351%. CCOCC(=O)NCCn1ccc(-c2ccccn2)n1 read 11.26%. CC(C)[C@H](C)NC1CCN(c2ccc(-c3cscn3)cc2)CC1 gave 15.66%.

With Fc1ccc2c(C3=CCN(Cc4nnc(C5CCC5)o4)CC3)c[nH]c2c1 the screen gave 21.55%. Result for COc1c(CNC(c2ccccc2)c2nccn2C)c(C)nn1C (centres unmarked) was 5.464%. Result for O=C(NC1COC2(CCN(Cc3ccccn3)CC2)C1)c1ccccn1 (centres unmarked) was 16.67%. Result for Cc1nc2n(n1)CC(NCc1nc(-c3cccs3)no1)CC2 (centres unmarked) was -9.023%. With Cc1cc(C(=O)N2CCN(Cn3cc(Cl)cn3)CC2)on1 the screen gave 7.246%.

For Cc1ccccc1C(Nc1ncnc2c1CCNC2)c1ccccc1 (centres unmarked) the result was 26.65%. Result for CCCC(=O)N1C[C@@H]2CCN(c3cnccn3)C[C@@H]2C1 was 0.3205%. Result for O=C(c1cc(Cn2ccc3ccccc32)[nH]n1)N1CCOCC1 was 11.72%. With Cc1cnn(CCNCC(=O)Nc2ccc(Br)cn2)c1 the screen gave 12.71%. CCc1noc(C(C)N2CCN(c3ccc(C#N)cn3)CC2)n1 (centres unmarked) gave 7.746%.

Cc1ccc(CN(CCCn2ccnc2)Cc2ccccc2O)s1 read 12.22%. CCC(C)N1CCc2c(C(=O)N(C)Cc3ccccn3)nn(C)c2C1 (centres unmarked) read 16.67%. CCOC(=O)N1CCN(C(=O)c2cc(-c3ccccc3F)on2)CC1 gave -8.877%. For CC(C)c1nc(CCn2cncn2)n(-c2ccc3c(c2)OCCO3)n1 the result was 12.69%. With CCn1nc(C)c2nc(C(C)C)nc(NCCCO)c21 the screen gave 14.52%.

For Cc1nn(C)c(C)c1CC(C)NC(=O)NCc1ccoc1C (centres unmarked) the result was 13.74%. With CC(C)CC(C(=O)N1CCCSCC1)N1CCCCC1=O (centres unmarked) the screen gave -0.2793%. For CNC(=O)CN1CC[C@H]2CN(C(=O)c3ccoc3)C[C@H]2C1 the result was 7.614%. CCN(C(=O)CCc1ccccc1)C1CC(=O)NC1=O (centres unmarked) gave 3.922%.

7 of the entries, repeated:

For COc1ccccc1-n1nc(-c2ccco2)n(CC(=O)NC(C)C)c1=O the result was 9.207%.
For Cc1cnn(CCNCC(=O)Nc2ccc(Br)cn2)c1 the result was 12.71%.
For CCc1nnc2n1CCN(Cc1csc(-c3ccccc3)n1)C2 the result was 13.86%.
For Cc1cccc(C(=O)Nc2cccc3c2C(=O)NC3)n1 the result was 8.871%.
For CC(C)CC(C(=O)N1CCCSCC1)N1CCCCC1=O (centres unmarked) the result was -0.2793%.
For O=C(C1CC1)N1CCN(Cc2ccncc2)c2ncccc2C1 the result was 6.849%.
For CCC(C)N1CCc2c(C(=O)N(C)Cc3ccccn3)nn(C)c2C1 (centres unmarked) the result was 16.67%.